Experimental data published in the supplement of paper PMC7877785.
± gives the uncertainty stated by the source. Many entries were measured with a wide error.

Test: self-splicing fitness, log relative to wild type (ln ratio); higher = more splicing; Tetrahymena group I intron in knt gene, E. coli kanamycin selection, DiMSum; sequences stand for … in CUCUCU…GGAGGGAAAAGUUAUCAGGCAUGCACCUGGUAGCUAGUCUUUAAACCAAUAGAUUGCAUCGGUUUAAAAGGCAAGACCGUCAAAUUGCGGGAAAGGGGUCAACAGCCGUUCAGUACCAAGUCUCAGGGGAAACUUUGAGAUGGCCUUGCAAAGGGUAUGGUAAUAAGCUGACGGACAUGGUCCUAACCACGCAGCCAAGUCCUAAGUCAACAGAUCUUCUGUUGAUAUGGAUGCAGUUCACAGACUAAAUGUCGGUCGGGGAAGAUGUAUUCUUCUCAUAAGAUAUAGUCGGACCUCUCCUUAAUGGGAGCUAGCGGAUGAAGUGAUGCAACACUGGAGCCGCUGGGAACUAAUUUGUAUGCGAAAGUAUAUUGAUUAGUUUUGGAGUACUCGUGGUCG
How it was run: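 Pooled colonies went to amplicon sequencing on an Illumina HiSeq 2500 after six replicate transformations. The plates were LB agar with 100 μg/mL carbenicillin, 50 μM IPTG and 0.2% rhamnose, with or without 25 μg/mL kanamycin, incubated overnight at 37°C or 30°C. The E. coli BL21(DE3) library had all eight P1ex-region intron nucleotides randomised, the intron placed in the knt kanamycin-resistance gene on pET-22b(+). DiMSum fitness is the error-weighted combination of replicate fold changes, kanamycin against none, normalised to wild type.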

AACCAGCAAUAUUACGCCCG
self-splicing fitness (ln) (30 °C): -0.353 ± 0.1 | self-splicing fitness (ln) (37 °C): -0.271 ± 0.17

GCGGAGCAAUAUUACGAGAG
self-splicing fitness (ln) (30 °C): -3.58 ± 1

AUCGAGCAAUAUUACGGUUC
self-splicing fitness (ln) (37 °C): -3.13 ± 0.74

AUGUAGCAAUAUUACGGCAC
self-splicing fitness (ln) (30 °C): -1.59 ± 0.18 | self-splicing fitness (ln) (37 °C): 0.329 ± 0.18

CCAGAGCAAUAUUACGCGAU
self-splicing fitness (ln) (30 °C): -5.27 ± 0.71

UCACAGCAAUAUUACGAAGC
self-splicing fitness (ln) (37 °C): -4.46 ± 0.51

GGUGAGCAAUAUUACGUCAC
self-splicing fitness (ln) (37 °C): -1.37 ± 1.2

GCAGAGCAAUAUUACGUCAA
self-splicing fitness (ln) (37 °C): -2.66 ± 0.54

UGAGAGCAAUAUUACGGACU
self-splicing fitness (ln) (30 °C): -3.5 ± 1 | self-splicing fitness (ln) (37 °C): -2.6 ± 0.76

CUAAAGCAAUAUUACGGCAC
self-splicing fitness (ln) (37 °C): -2.32 ± 0.55

ACAAAGCAAUAUUACGAUGC
self-splicing fitness (ln) (30 °C): -1.61 ± 0.11 | self-splicing fitness (ln) (37 °C): -1.9 ± 0.15

CUUAAGCAAUAUUACGUACA
self-splicing fitness (ln) (30 °C): -4.16 ± 0.52

CGUUAGCAAUAUUACGCCAA
self-splicing fitness (ln) (37 °C): -2.01 ± 0.51

GGCCAGCAAUAUUACGUCCU
self-splicing fitness (ln) (30 °C): -1.47 ± 0.21 | self-splicing fitness (ln) (37 °C): -0.4 ± 0.17

UAUGAGCAAUAUUACGCCCC
self-splicing fitness (ln) (30 °C): -2.79 ± 1.2

ACUCAGCAAUAUUACGCGGC
self-splicing fitness (ln) (37 °C): -4.44 ± 0.51

AAUGAGCAAUAUUACGCGAC
self-splicing fitness (ln) (30 °C): -4.1 ± 1

GGGGAGCAAUAUUACGGCCG
self-splicing fitness (ln) (30 °C): 0.671 ± 0.55 | self-splicing fitness (ln) (37 °C): -1.13 ± 0.6

AUCAAGCAAUAUUACGCCCG
self-splicing fitness (ln) (30 °C): -0.965 ± 0.17 | self-splicing fitness (ln) (37 °C): -0.202 ± 0.2

AAAAAGCAAUAUUACGCCUC
self-splicing fitness (ln) (30 °C): -3.48 ± 0.6

CGCGAGCAAUAUUACGCCCG
self-splicing fitness (ln) (30 °C): -3.84 ± 0.61 | self-splicing fitness (ln) (37 °C): -2.5 ± 0.77

CGUUAGCAAUAUUACGCGUC
self-splicing fitness (ln) (37 °C): -3.34 ± 0.6

GCGAAGCAAUAUUACGGACC
self-splicing fitness (ln) (30 °C): -1.32 ± 0.73 | self-splicing fitness (ln) (37 °C): -1.8 ± 0.55

AGUAAGCAAUAUUACGCAAC
self-splicing fitness (ln) (30 °C): -3.45 ± 0.55

CAAGAGCAAUAUUACGCAGC
self-splicing fitness (ln) (30 °C): -3.83 ± 0.73 | self-splicing fitness (ln) (37 °C): -2.07 ± 0.79

GAAGAGCAAUAUUACGGCCC
self-splicing fitness (ln) (30 °C): -2.79 ± 1.2

CUUUAGCAAUAUUACGAAUA
self-splicing fitness (ln) (37 °C): -3.2 ± 0.73

CUGCAGCAAUAUUACGCCGC
self-splicing fitness (ln) (30 °C): -3.8 ± 0.52

CGAAAGCAAUAUUACGGUAC
self-splicing fitness (ln) (37 °C): -3.54 ± 0.73

UGUAAGCAAUAUUACGCCCC
self-splicing fitness (ln) (30 °C): -0.00987 ± 0.86 | self-splicing fitness (ln) (37 °C): -0.673 ± 0.73

UUUCAGCAAUAUUACGUAGC
self-splicing fitness (ln) (37 °C): -1.69 ± 0.53

GGCUAGCAAUAUUACGCCCU
self-splicing fitness (ln) (37 °C): 0.0828 ± 0.36

CCGGAGCAAUAUUACGAUAC
self-splicing fitness (ln) (30 °C): -3.54 ± 0.6

UCUCAGCAAUAUUACGCUCA
self-splicing fitness (ln) (30 °C): -3.47 ± 0.63

GAUCAGCAAUAUUACGAUUC
self-splicing fitness (ln) (30 °C): -3.05 ± 0.38 | self-splicing fitness (ln) (37 °C): -1.79 ± 0.27

GGGAAGCAAUAUUACGCUUC
self-splicing fitness (ln) (37 °C): -2.09 ± 0.67

CGAAAGCAAUAUUACGUAAC
self-splicing fitness (ln) (30 °C): -3.35 ± 1

CGAGAGCAAUAUUACGAACC
self-splicing fitness (ln) (30 °C): -2.09 ± 1.4

CAAGAGCAAUAUUACGGGCC
self-splicing fitness (ln) (30 °C): -4.91 ± 0.51

UAUCAGCAAUAUUACGAGGC
self-splicing fitness (ln) (30 °C): -3.47 ± 0.52

GACCAGCAAUAUUACGUGAG
self-splicing fitness (ln) (30 °C): -1.33 ± 0.055 | self-splicing fitness (ln) (37 °C): -1 ± 0.064

UAUAAGCAAUAUUACGUUCC
self-splicing fitness (ln) (37 °C): -2.16 ± 0.56

GUUUAGCAAUAUUACGAUUG
self-splicing fitness (ln) (30 °C): -1.55 ± 0.76 | self-splicing fitness (ln) (37 °C): -1.65 ± 0.66

UACCAGCAAUAUUACGUAAG
self-splicing fitness (ln) (30 °C): -3.73 ± 0.15 | self-splicing fitness (ln) (37 °C): -1.99 ± 0.15

AUGCAGCAAUAUUACGGGGU
self-splicing fitness (ln) (30 °C): -3.71 ± 0.17 | self-splicing fitness (ln) (37 °C): -2.88 ± 0.18

GGACAGCAAUAUUACGUCCC
self-splicing fitness (ln) (37 °C): -1.62 ± 0.55

AUUGAGCAAUAUUACGUUUC
self-splicing fitness (ln) (30 °C): -3.85 ± 0.73

AGAUAGCAAUAUUACGACGA
self-splicing fitness (ln) (30 °C): -0.422 ± 0.095 | self-splicing fitness (ln) (37 °C): -0.749 ± 0.085

CUUUAGCAAUAUUACGCCAA
self-splicing fitness (ln) (37 °C): -1.13 ± 0.71

CUUAAGCAAUAUUACGGACC
self-splicing fitness (ln) (30 °C): -3.83 ± 1

CGGGAGCAAUAUUACGUGGG
self-splicing fitness (ln) (37 °C): -2.84 ± 0.53

AUCCAGCAAUAUUACGCGGU
self-splicing fitness (ln) (30 °C): -2.02 ± 0.71

UUAGAGCAAUAUUACGUCAC
self-splicing fitness (ln) (30 °C): -3.02 ± 0.65

UAUGAGCAAUAUUACGAUCC
self-splicing fitness (ln) (30 °C): -4.11 ± 0.52

UCGUAGCAAUAUUACGACGC
self-splicing fitness (ln) (30 °C): -3.06 ± 1.1 | self-splicing fitness (ln) (37 °C): -1.95 ± 0.53

AAGGAGCAAUAUUACGAUCA
self-splicing fitness (ln) (37 °C): -1.95 ± 0.58

UGGGAGCAAUAUUACGCCGC
self-splicing fitness (ln) (37 °C): -0.886 ± 0.93

GUUGAGCAAUAUUACGAAUG
self-splicing fitness (ln) (30 °C): -4.07 ± 0.51

CAAUAGCAAUAUUACGUAGU
self-splicing fitness (ln) (30 °C): -3.31 ± 0.29 | self-splicing fitness (ln) (37 °C): -2.44 ± 0.22

AGGGAGCAAUAUUACGAGUC
self-splicing fitness (ln) (37 °C): -2.38 ± 0.51

UUUGAGCAAUAUUACGCGCA
self-splicing fitness (ln) (30 °C): -3.19 ± 1.2

UCUAAGCAAUAUUACGUUUA
self-splicing fitness (ln) (30 °C): -3.99 ± 0.73

GGUUAGCAAUAUUACGUACC
self-splicing fitness (ln) (30 °C): -2.09 ± 1.4

UCGUAGCAAUAUUACGGUCC
self-splicing fitness (ln) (37 °C): -2.3 ± 1.1

AUGGAGCAAUAUUACGCGCC
self-splicing fitness (ln) (30 °C): -2.29 ± 0.61
